Results deposited as PubChem BioAssay AID504793 (Drosophila RNAi Screening Center, 2011)
The screen tested about 23,000 reagents; below is a random part of those with a known target gene and a result. In the full data, 62 (0.27%) are marked active. 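Calls come from follow-up tests whose scores are not deposited, so confirmed genes may have low counts here; counts are not normalised per plate.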 Raw values are not corrected between plates. Names joined by + are all predicted targets of the reagent.

Purpose: 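Knock-downs allowing continued mitosis even though DNA is damaged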 (primary screen)
Cells: Drosophila S2R+ cells
Reagents: long dsRNA against Drosophila genes, about 0.25 µg dsRNA per well
Time to read-out: 4 days of dsRNA, then 4 hours of drug before read-out
Treatment: doxorubicin 0.5 µM for 4 hours to cause double-strand breaks, in cells also given a low, harmless dose of dsRNA against nbs to sensitise the assay
Measured: 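Mitotic index as the number of phospho-histone H3-positive cells in each well following doxorubicin, given as raw counts without normalisation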
Direction: mitotic cells: higher = more cells in mitosis, weaker G2 arrest
Call rule: 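a call needs confirmation in secondary tests, with other dsRNAs and a check of mitotic timing without damage, not just a high primary count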
Meaning of the calls: active = confirmed in follow-up tests; inactive = not confirmed

| Gene | DRSC id | mitotic cells, replicate 1 | mitotic cells, replicate 2 | Outcome |
| --- | --- | --- | --- | --- |
| RhoGAP71E (GeneID 39693) | DRSC10232 | 5 | – | inactive |
| RhoGAP71E (GeneID 39693) | DRSC10838 | 4 | – | inactive |
| RhoGAP71E (GeneID 39693) | DRSC29082 | 5 | – | inactive |
| Abi (GeneID 41718) | DRSC14099 | 13 | – | inactive |
| Abi (GeneID 41718) | DRSC27275 | 5 | – | inactive |
| APP-BP1 (GeneID 39244) | DRSC10920 | 3 | – | inactive |
| Obp73a (GeneID 2768955) | DRSC09907 | 8 | – | inactive |
| lectin-33A (GeneID 53516) | DRSC02529 | 6 | – | inactive |
| lectin-33A (GeneID 53516) | DRSC22116 | 4 | – | inactive |
| Cdk9 (GeneID 37586) | DRSC04601 | 8 | – | inactive |
| CG17999 (GeneID 37357) | DRSC04300 | 5 | – | inactive |
| Tmtc3 (GeneID 37401) | DRSC04444 | 8 | – | inactive |
| CG16972 (GeneID 34715) | DRSC02550 | 2 | – | inactive |
| Gr64b (GeneID 117480) | DRSC08444 | 2 | – | inactive |
| P5CDh1 (GeneID 40434) | DRSC11801 | 4 | – | inactive |
| CG40045 (GeneID 3355079) | DRSC21232 | 5 | 12 | inactive |
| Ald1 (GeneID 43183) | DRSC14109 | 26 | – | active |
| Ald1 (GeneID 43183) | DRSC25381 | 26 | – | active |
| Art3 (GeneID 41837) | DRSC16065 | 5 | – | inactive |
| Ste:CG33238 + Ste:CG33241 + Ste:CG33236 + 11 more | DRSC19004 | 72 | – | inactive |
| Ste:CG33238 + Ste:CG33241 + Ste:CG33236 + 11 more | DRSC21260 | 5 | – | inactive |
| PolA2 (GeneID 43278) | DRSC16641 | 21 | – | inactive |
| CG7080 (GeneID 42609) | DRSC16193 | 6 | – | inactive |
| CG7080 (GeneID 42609) | DRSC27850 | 7 | – | inactive |
| CG17472 (GeneID 35320) | DRSC02622 | 4 | – | inactive |
| Gr77a (GeneID 117476) | DRSC11446 | 6 | – | inactive |
| Gr77a (GeneID 117476) | DRSC26808 | 6 | – | inactive |
| pins (GeneID 53569) | DRSC17043 | 7 | – | inactive |
| Gcat (GeneID 39333) | DRSC09719 | 4 | – | inactive |
| Gcat (GeneID 39333) | DRSC26093 | 11 | – | inactive |
| CG43347 (GeneID 31991) | DRSC23007 | 12 | – | inactive |
| CG43347 (GeneID 31991) | DRSC23170 | 1 | – | inactive |
| CG43347 (GeneID 31991) | DRSC25782 | 3 | – | inactive |
| CG43347 (GeneID 31991) | DRSC29367 | 6 | – | inactive |
| Erk7 (GeneID 31877) | DRSC18127 | 11 | – | inactive |
| Erk7 (GeneID 31877) | DRSC18227 | 13 | – | inactive |
| Erk7 (GeneID 31877) | DRSC21895 | 7 | – | inactive |
| GluClalpha (GeneID 42350) | DRSC16680 | 11 | – | inactive |
| CG30391 (GeneID 37423) | DRSC21572 | 5 | – | inactive |
| Mst57Da (GeneID 47954) | DRSC16744 | 5 | – | inactive |
| Urod (GeneID 35986) | DRSC07569 | 6 | – | inactive |
| Urod (GeneID 35986) | DRSC30007 | 6 | – | inactive |
| mRpL23 (GeneID 38302) | DRSC08307 | 13 | – | inactive |
| Atg18b (GeneID 35396) | DRSC03108 | 1 | – | inactive |
| Atg18b (GeneID 35396) | DRSC28594 | 4 | – | inactive |
| CtsL1 (GeneID 36546) | DRSC05462 | 9 | – | inactive |
| CtsL1 (GeneID 36546) | DRSC07363 | 6 | – | inactive |
| CtsL1 (GeneID 36546) | DRSC29071 | 10 | – | inactive |
| CG7304 (GeneID 39713) | DRSC10804 | 8 | – | inactive |
| CG7304 (GeneID 39713) | DRSC29103 | 7 | – | inactive |

Targets listed so far whose gene name begins with L or l:
| Gene | DRSC id | mitotic cells, replicate 1 | mitotic cells, replicate 2 | Outcome |
| --- | --- | --- | --- | --- |
| lectin-33A (GeneID 53516) | DRSC02529 | 6 | – | inactive |
| lectin-33A (GeneID 53516) | DRSC22116 | 4 | – | inactive |

Next entries follow:
| Gene | DRSC id | mitotic cells, replicate 1 | mitotic cells, replicate 2 | Outcome |
| --- | --- | --- | --- | --- |
| Mnt (GeneID 31331) | DRSC17894 | 7 | – | inactive |
| Mnt (GeneID 31331) | DRSC18480 | 9 | – | inactive |
| Sec15 (GeneID 42499) | DRSC16179 | 5 | – | inactive |
| Sec15 (GeneID 42499) | DRSC29670 | 4 | – | inactive |
| Cpr65Ea (GeneID 38773) | DRSC11027 | 5 | – | inactive |
| Cpr65Ea (GeneID 38773) | DRSC25692 | 6 | – | inactive |
| Trf2 (GeneID 31773) | DRSC18727 | 3 | – | inactive |
| Trf2 (GeneID 31773) | DRSC29152 | 10 | – | inactive |
| eIF3b (GeneID 36981) | DRSC06900 | 3 | – | inactive |
| pcm (GeneID 32935) | DRSC20361 | 7 | – | inactive |
| CG10657 (GeneID 39423) | DRSC09768 | 2 | 20 | inactive |
| CG10657 (GeneID 39423) | DRSC27483 | 8 | – | inactive |
| CG32645 (GeneID 32264) | DRSC19683 | 7 | – | inactive |
| CG32645 (GeneID 32264) | DRSC19889 | 9 | – | inactive |
| CG17111 (GeneID 42727) | DRSC15174 | 11 | – | inactive |
| CG17111 (GeneID 42727) | DRSC26175 | 7 | – | inactive |
| CG32236 (GeneID 249170) | DRSC08117 | 10 | – | inactive |
| Cpr78E (GeneID 40408) | DRSC11807 | 3 | – | inactive |
| ssp2 (GeneID 39540) | DRSC11052 | 7 | – | inactive |
| ssp2 (GeneID 39540) | DRSC23906 | 7 | – | inactive |
| CG14089 (GeneID 40101) | DRSC10093 | 1 | – | inactive |
| CG14089 (GeneID 40101) | DRSC24848 | 6 | – | inactive |
| CG33454 (GeneID 2768850) | DRSC22914 | 12 | – | inactive |
| CG33454 (GeneID 2768850) | DRSC26767 | 3 | – | inactive |
| Cnb (GeneID 38258) | DRSC08569 | 8 | – | inactive |
